{"source": "PubChem BioAssay AID686938 (Drosophila RNAi Screening Center, 2013)", "assay": "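Looking for CRAC channel components and the factors controlling them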 (primary screen)", "cell system": "Drosophila S2R+ cells", "reagent": "long dsRNA against Drosophila genes, about 0.25 µg dsRNA per well, roughly 10,000 cells", "time to read-out": "5 days of knock-down before the calcium assay", "conditions": "thapsigargin (SERCA pump blocker) to empty calcium stores; entry signal taken 4 min after adding it", "measurement": "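Per-well fluo-4 fluorescence in two replicates, unnormalised, measured in resting cells and 4 min after store depletion by the SERCA blocker thapsigargin; ratio of the two present in few wells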", "scale": "calcium entry signal: higher = stronger calcium signal after store depletion; resting calcium signal: higher = higher resting calcium signal", "units": "calcium entry signal in fluorescence units; resting calcium signal in fluorescence units", "call rule": "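Called when the plate z-score of the entry-to-rest ratio, mean of duplicates, falls below −3; wells with low overall dye signal (Fmax z below −2) or more than five off-targets excluded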", "calls": "active = strongly reduced calcium entry; inactive = no strong reduction", "note": "In all, the deposit lists about 23,000 reagents; this is a random part of those that have a named target and a result. Of all reagents, 75 (0.33%) are marked active. 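Raw plate signals without normalisation; calls rest on plate z-scores that were not deposited; ratio present for only 364 wells.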 A number with no mark means an inactive call. Not stated in the record: the dose of the treatment."}
{"gene knocked down": "galla-2 (GeneID 39221)", "amplicon": "DRSC10936", "calcium entry signal, replicate 1": 2.92e7, "calcium entry signal, replicate 2": 3.39e7, "resting calcium signal, replicate 1": 1.49e7, "resting calcium signal, replicate 2": 1.64e7}
{"gene knocked down": "galla-2 (GeneID 39221)", "amplicon": "DRSC21949", "calcium entry signal, replicate 1": 3.52e7, "calcium entry signal, replicate 2": 5.76e7, "resting calcium signal, replicate 1": 1.62e7, "resting calcium signal, replicate 2": 2.97e7}
{"gene knocked down": "CG31229 (GeneID 318636)", "amplicon": "DRSC13309", "calcium entry signal, replicate 1": 2.41e7, "calcium entry signal, replicate 2": 2.17e7, "resting calcium signal, replicate 1": 1.42e7, "resting calcium signal, replicate 2": 1.16e7}
{"gene knocked down": "CG10512 (GeneID 40339)", "amplicon": "DRSC11615", "calcium entry signal, replicate 1": 3.21e7, "calcium entry signal, replicate 2": 5.16e7, "resting calcium signal, replicate 1": 1.52e7, "resting calcium signal, replicate 2": 2.25e7}
{"gene knocked down": "CG1486 (GeneID 33108)", "amplicon": "DRSC20508", "calcium entry signal, replicate 1": 4.58e7, "calcium entry signal, replicate 2": 4.83e7, "resting calcium signal, replicate 1": 2.05e7, "resting calcium signal, replicate 2": 2.09e7}
{"gene knocked down": "Slc25A46a (GeneID 32564)", "amplicon": "DRSC20125", "calcium entry signal, replicate 1": 4.16e7, "calcium entry signal, replicate 2": 4.81e7, "resting calcium signal, replicate 1": 1.94e7, "resting calcium signal, replicate 2": 2.22e7}
{"gene knocked down": "Pex1 (GeneID 45460)", "amplicon": "DRSC11358", "calcium entry signal, replicate 1": 2.40e7, "calcium entry signal, replicate 2": 3.17e7, "resting calcium signal, replicate 1": 1.19e7, "resting calcium signal, replicate 2": 2.17e7}
{"gene knocked down": "Top3beta (GeneID 31565)", "amplicon": "DRSC18724", "calcium entry signal, replicate 1": 2.80e7, "calcium entry signal, replicate 2": 3.15e7, "resting calcium signal, replicate 1": 1.35e7, "resting calcium signal, replicate 2": 1.38e7}
{"gene knocked down": "Dora (GeneID 50356)", "amplicon": "DRSC19614", "calcium entry signal, replicate 1": 5.64e7, "calcium entry signal, replicate 2": 4.84e7, "resting calcium signal, replicate 1": 2.76e7, "resting calcium signal, replicate 2": 2.02e7}
{"gene knocked down": "Dora (GeneID 50356)", "amplicon": "DRSC19781", "calcium entry signal, replicate 1": 5.88e7, "calcium entry signal, replicate 2": 2.76e7, "resting calcium signal, replicate 1": 2.69e7, "resting calcium signal, replicate 2": 1.28e7}
{"gene knocked down": "Dora (GeneID 50356)", "amplicon": "DRSC20034", "calcium entry signal, replicate 1": 5.71e7, "calcium entry signal, replicate 2": 4.13e7, "resting calcium signal, replicate 1": 2.76e7, "resting calcium signal, replicate 2": 1.91e7}
{"gene knocked down": "Dora (GeneID 50356)", "amplicon": "DRSC20035", "calcium entry signal, replicate 1": 5.87e7, "calcium entry signal, replicate 2": 4.79e7, "resting calcium signal, replicate 1": 3.02e7, "resting calcium signal, replicate 2": 2.35e7}
{"gene knocked down": "CG8065 (GeneID 39186)", "amplicon": "DRSC10959", "calcium entry signal, replicate 1": 3.13e7, "calcium entry signal, replicate 2": 3.77e7, "resting calcium signal, replicate 1": 1.56e7, "resting calcium signal, replicate 2": 1.76e7}
{"gene knocked down": "Dim1 (GeneID 33645)", "amplicon": "DRSC00563", "calcium entry signal, replicate 1": 1.79e7, "calcium entry signal, replicate 2": 1.81e7, "resting calcium signal, replicate 1": 1.08e7, "resting calcium signal, replicate 2": 1.06e7}

Limited to “calcium entry signal, replicate 1”, for 2 of the entries above:
Top3beta (GeneID 31565) [DRSC18724] = 2.80e7
Dora (GeneID 50356) [DRSC19614] = 5.64e7
